# Assay results as given in PMC5300155, “Biochemical and biophysical investigations of the interaction between human glucokinase and pro-apoptotic BAD” (PLoS ONE, 2017).
# These are yes or no findings as the source states them, for the method shown. Sequences can lack the tags named with a protein.
# T1: recombinant human pancreatic glucokinase (human), P35557
# T1 chain: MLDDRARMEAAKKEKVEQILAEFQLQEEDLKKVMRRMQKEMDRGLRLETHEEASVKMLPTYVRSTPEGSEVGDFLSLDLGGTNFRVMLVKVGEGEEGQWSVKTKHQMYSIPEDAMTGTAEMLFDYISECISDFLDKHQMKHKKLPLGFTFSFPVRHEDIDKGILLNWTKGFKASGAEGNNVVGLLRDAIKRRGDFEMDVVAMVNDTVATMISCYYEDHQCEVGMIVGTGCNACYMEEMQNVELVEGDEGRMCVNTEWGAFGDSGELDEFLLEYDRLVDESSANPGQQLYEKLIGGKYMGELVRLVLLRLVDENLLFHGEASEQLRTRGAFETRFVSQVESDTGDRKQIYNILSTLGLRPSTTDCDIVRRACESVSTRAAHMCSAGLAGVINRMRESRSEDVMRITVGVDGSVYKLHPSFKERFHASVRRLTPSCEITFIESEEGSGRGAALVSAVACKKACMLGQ
# T2: S118D BAD-GST variant (human) (UniProt Q92934)
# T2 sequence: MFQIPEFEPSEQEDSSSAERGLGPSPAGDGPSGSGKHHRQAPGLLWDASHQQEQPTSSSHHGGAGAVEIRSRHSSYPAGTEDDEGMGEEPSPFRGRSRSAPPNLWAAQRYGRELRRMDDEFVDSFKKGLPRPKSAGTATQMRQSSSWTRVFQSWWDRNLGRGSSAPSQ
# T3: FITC-labeled 21-residue peptide containing the BH3 domain of BAD (human)
# T3 sequence (peptide, FITC on the lysine at peptide position 18 (K(FITC))): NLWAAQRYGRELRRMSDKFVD
# T4: recombinant human pancreatic glucokinase (human) (UniProt P35557)
# T4 sequence: T1 chain
# B1: recombinant human pancreatic glucokinase, P35557 1-465 (enzyme)
# chain: T1 chain
# B2: recombinant human pancreatic glucokinase (enzyme, UniProt P35557 1-465)
# chain: T1 chain
# B3: 21-residue phosphorylated peptide containing the BH3 domain of BAD (peptide)
# peptide: NLWAAQRYGRELRRMSDKFVD
# modifications: phosphoserine at position 118 (peptide position 16)
# Tests used:
# [1] = biological target: T1, recombinant human pancreatic …; test: SEC; HiPrep 16/60 Sephacryl S-200 HR, calibrated; single proteins or equimolar mixtures incubated on ice 30 min; BAD buffer pH 8.5; 4°C; both purified; conditions: remark: other sources report otherwise
# [2] = biological target: T2, S118D BAD-GST variant (human); test: condition: GCK 100 μM titrated into 10–15 μM S118D BAD-GST; ITC; GCK (100 μM) titrated in 13 μL injections into S118D BAD-GST (10–15 μM); BAD buffer pH 8.5; 25°C; both purified
# [3] = biological target: T3, FITC-labeled 21-residue peptide containing the BH3 domain of BAD (human); test: fluorescence polarisation; FITC peptide fixed, GCK varied (methods: 0–400 μM); with and without 0.2 M glucose; also with trifluoroethanol (20–40%); room temperature; both purified
# [4] = biological target: T4, recombinant human pancreatic glucokinase (human); test: ITC; pBH3 peptide (300 μM) titrated into GCK (10 μM); 25 mM potassium phosphate, 25 mM KCl, 4 mM TCEP, 5% DMSO, with and without 200 mM glucose; 25°C; both purified
binder,measurement,setting,value
B1,binding,[1],no binding
B2,binding,[2],no binding
same,binding,[3],no binding (tested: 10^−9 to 10^−5 M GCK)
B3,binding,[4],no binding (tested: up to 50 μM)
